Laboratory results taken from US20090305995A1 (Novartis AG, priority 2004, published 2009).
Strings that start with PEPTIDE1 are HELM notation: dots part the residues, brackets hold end groups and non-standard residues.

Experiment: general procedure: solution-phase peptide synthesis; carbonyldiimidazole (for C-terminal amine building blocks)
Conditions: whole synthesis, HPLC, HR-MS, LC-MS, 1D- and 2D-NMR

Substance | purity (crude or final not stated)
PEPTIDE1{[Ac].[b3hPhe].[dW].[b3hLys].[HThrNH2]}$$$$V2.0 [2] | >94%
PEPTIDE1{[AdaCO].[b3hPhe].[dW].[b3hLys].[HThrNH2]}$$$$V2.0 | >87%
PEPTIDE1{[Bz].[b3hPhe].[dW].[b3hLys].[HThrNH2]}$$$$V2.0 | >93%
PEPTIDE1{[HCin].[b3hPhe].[dW].[b3hLys].[HThrNH2]}$$$$V2.0 | >97%
PEPTIDE1{[Non].[b3hPhe].[dW].[b3hLys].[HThrNH2]}$$$$V2.0 | >97%
PEPTIDE1{[b3hPhe].[dW].[b3hLys].[HThrNH2]}$$$$V2.0 | >99%
PEPTIDE1{[cHexCO].[b3hPhe].[dW].[b3hLys].[HThrNH2]}$$$$V2.0 | >89%

Same assay, conditions: whole synthesis, HR-MS, LC-MS, 1D- and 2D-NMR

Substance | final HPLC purity
Ac—(S)-β^3-HPhe-(R)-Trp-(S)-β^3-HLys-(R)-4-amino-(R)-5-methyl-dihydro-furan-2-one [7] | >99%
Cyclohexanoyl-(S)-β^3-HPhe-(R)-Trp-(S)-β^3-HLys-(R)-4-amino-(R)-5-methyl-dihydro-furan-2-one | >99%
Dihydrocinnemoyl-(S)-β^3-HPhe-(R)-1-Me-Trp-(S)-β^3-HLys-(R)-4-amino-(R)-5-methyl-dihydro-furan-2-one | 96%
PEPTIDE1{[Ac].[Meb3hPhe].[dW].[b3hLys].[HThrLac]}$$$$V2.0 | >99%
PEPTIDE1{[Ac].[b3hPhe].[dW].[b3hLys].[NHcPent]}$$$$V2.0 | >99%
PEPTIDE1{[Ac].[b3hPhe].[dW].[b3hLys].[b3Leu].[NEt2]}$$$$V2.0 | >94%
PEPTIDE1{[Ac].[b3hPhe].[dW].[b3hLys].[b3Leu].[NMePhEt]}$$$$V2.0 | >99%
PEPTIDE1{[Ac].[b3hPhe].[med1MeW].[b3hLys].[HThrLac]}$$$$V2.0 | >99%
PEPTIDE1{[Ac].[b3hPhe].[medW].[b3hLys].[HThrLac]}$$$$V2.0 | >99%
PEPTIDE1{[AdaCO].[b3hPhe].[d1MeW].[b3hLys].[HThrLac]}$$$$V2.0 | >99%
PEPTIDE1{[AdaCO].[b3hPhe].[dW].[b3hLys].[HThrLac]}$$$$V2.0 | >99%
PEPTIDE1{[AdaCO].[b3hPhe].[dW].[b3hLys].[b3Leu].[NMePhEt]}$$$$V2.0 | >80%
PEPTIDE1{[Bz].[b3hPhe].[dW].[b3hLys].[HThrLac]}$$$$V2.0 | >91%
PEPTIDE1{[HCin].[b3hPhe].[dW].[b3hLys].[HThrLac]}$$$$V2.0 | >99%
PEPTIDE1{[HCin].[b3hPhe].[dW].[b3hLys].[b3Leu].[NEt2]}$$$$V2.0 | >99%
PEPTIDE1{[HCin].[b3hPhe].[dW].[b3hLys].[b3Leu].[NMePhEt]}$$$$V2.0 | >93%
PEPTIDE1{[Meb3hPhe].[dW].[b3hLys].[HThrLac]}$$$$V2.0 | >99%
PEPTIDE1{[b3hPhe].[dW].[b3hLys].[HThrLac]}$$$$V2.0 [28] | >99%
